Measured values taken from the supplement of paper PMC4604168 (melanoma cell lines).
Some of the results follow. Single values are uncertain, as repeats are few or missing.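 Imaging used 1,536-well plates; nuclei positive for cleaved PARP by antibody were divided by total DNA-stained nuclei to yield the apoptosis fraction. Doses for screening kept most cells viable, and cell lines differ markedly in resting and induced cleaved-PARP levels.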

Experiments:
Assay in all cases: cleaved PARP positive nuclei fraction relative to DMSO control; melanoma cells; higher = more apoptosis
Details in all cases: library dose: low library concentration; 72 h
[1] = test system: 501Mel
[2] = test system: A101D
[3] = test system: A2058
[4] = test system: A375
[5] = test system: C32
[6] = test system: CBRC008 (line from a melanoma biopsy)
[7] = test system: CBRC013 (line from a melanoma biopsy)
[8] = test system: CBRC014 (line from a melanoma biopsy)
[9] = test system: CBRC016 (line from a melanoma biopsy)
[10] = test system: CBRC017 (line from a melanoma biopsy)

SMILES | cleaved PARP positive nuclei fraction [1] [%] | cleaved PARP positive nuclei fraction [2] [%] | cleaved PARP positive nuclei fraction [3] [%] | cleaved PARP positive nuclei fraction [4] [%] | cleaved PARP positive nuclei fraction [5] [%] | cleaved PARP positive nuclei fraction [6] [%] | cleaved PARP positive nuclei fraction [7] [%] | cleaved PARP positive nuclei fraction [8] [%] | cleaved PARP positive nuclei fraction [9] [%] | cleaved PARP positive nuclei fraction [10] [%]
NC(=O)c1ccc(N(C(N)=O)c2c(F)cccc2F)nc1-c1ccc(F)cc1F + C=CCn1c(=O)c2cnc(Nc3ccc(N4CCN(C)CC4)cc3)nc2n1-c1cccc(C(C)(C)O)n1 [MK1775] (first compound 0.4 µM, partner dose 0.02 µM) | 85.4 | 157 | 49.5 | 501 | 99 | 69.5 | 53.9 | 91.7 | 113 | 154
CCN(CC)CCNC(=O)c1c(C)[nH]c(/C=C2\C(=O)Nc3ccc(F)cc32)c1C [sunitinib] + C=CCn1c(=O)c2cnc(Nc3ccc(N4CCN(C)CC4)cc3)nc2n1-c1cccc(C(C)(C)O)n1 [MK1775] (first compound 0.4 µM, partner dose 0.02 µM) | 133 | 59.5 | 53.4 | 383 | 75.8 | 75.8 | 164 | 90.9 | 29.1 | 107
NC1(c2ccc(-c3nc4ccn5c(=O)[nH]nc5c4cc3-c3ccccc3)cc2)CCC1 + OCCn1cc(-c2cnc3nnn(Cc4ccc5ncccc5c4)c3n2)cn1 [PF04217903] (first compound 0.4 µM, partner dose 1 µM) | 93.3 | 86.6 | 112 | 135 | 192 | 175 | 111 | 82.7 | 60.1 | 102
NC1(c2ccc(-c3nc4ccn5c(=O)[nH]nc5c4cc3-c3ccccc3)cc2)CCC1 + NCC(=O)Nc1ccc(-n2nc(C(F)(F)F)cc2-c2ccc3c(ccc4ccccc43)c2)cc1 [OSU03012] (first compound 0.4 µM, partner dose 1 µM) | 549 | 128 | 169 | 3710 | 60.9 | 94.8 | 97.1 | 71.9 | 52.4 | 130
Cn1cnc2c(F)c(Nc3ccc(Br)cc3Cl)c(C(=O)NOCCO)cc21 [selumetinib] + COc1cc2c(Oc3ccc4[nH]c(C)cc4c3F)ncnc2cc1OCCCN1CCCC1 [cediranib] (first compound 0.015 µM, partner dose 0.4 µM) | 212 | 184 | 51 | 142 | 88.7 | 49.5 | 159 | 80 | 117 | 99.3
CN(c1ncccc1CNc1nc(Nc2ccc3c(c2)CC(=O)N3)ncc1C(F)(F)F)S(C)(=O)=O + Cc1ccc(NC(=O)c2cccc(N(C)C)c2)cc1NC(=O)c1ccc(O)cc1 [ZM336372] (first compound 0.08 µM, partner dose 2 µM) | 43.4 | 48.8 | 121 | 71.7 | 456 | 57.8 | 77 | 104 | 62 | 74
C[C@]1(O)C[C@@H](c2nc(-c3ccc4ccc(-c5ccccc5)nc4c3)c3c(N)nccn32)C1 + CN(NC(=O)CC(=O)NN(C)C(=S)c1ccccc1)C(=S)c1ccccc1 [STA4783] (first compound 0.4 µM, partner dose 0.006 µM) | 648 | 107 | 92.8 | 14900 | 272 | 1670 | 153 | 514 | 72 | 342
Cn1cnc2c(F)c(Nc3ccc(Br)cc3Cl)c(C(=O)NOCCO)cc21 [selumetinib] + O=C(Nc1cccc(Cl)c1)Nc1ncc(CCNc2ncnc3ccsc23)s1 [SNS314] (first compound 0.015 µM, partner dose 0.0008 µM) | 268 | 54.2 | 177 | 105 | 97.8 | 27 | 165 | 80 | 88.4 | 126
NC(=O)c1ccc(N(C(N)=O)c2c(F)cccc2F)nc1-c1ccc(F)cc1F + CO[C@@H]1[C@H](N(C)C(=O)c2ccccc2)C[C@H]2O[C@]1(C)n1c3ccccc3c3c4c(c5c6ccccc6n2c5c31)C(=O)NC4 [Midostaurin] (first compound 0.4 µM, partner dose 0.08 µM) | 107 | 93.8 | 171 | 69.5 | 84.2 | 83.8 | 161 | 80.7 | 79.9 | 112
CS(=O)(=O)c1ccc(C(=O)Nc2ccc(Cl)c(-c3ccccn3)c2)c(Cl)c1 [vismodegib] + Cc1ccc(NC(=O)c2cccc(N(C)C)c2)cc1NC(=O)c1ccc(O)cc1 [ZM336372] (first compound 1 µM, partner dose 2 µM) | 70.2 | 76.6 | 103 | 28.7 | 227 | 72 | 76.6 | 106 | 145 | 80.9
C[C@]1(O)C[C@@H](c2nc(-c3ccc4ccc(-c5ccccc5)nc4c3)c3c(N)nccn32)C1 + OCCn1cc(-c2cnc3nnn(Cc4ccc5ncccc5c4)c3n2)cn1 [PF04217903] (first compound 0.4 µM, partner dose 1 µM) | 182 | 87.2 | 98.7 | 173 | 101 | 131 | 70 | 494 | 97.2 | 79
CC1(C)CCC(c2ccc(Cl)cc2)=C(CN2CCN(c3ccc(C(=O)NS(=O)(=O)c4ccc(N[C@H](CCN5CCOCC5)CSc5ccccc5)c(S(=O)(=O)C(F)(F)F)c4)cc3)CC2)C1 + O=C(O)c1ccc(-c2c[nH]c3ncc(-c4ccccc4)cc23)cc1C1CCCC1 [GSK650394] (first compound 0.4 µM, partner dose 0.16 µM) | 93.2 | 279 | 235 | 312 | 229 | 276 | 181 | 704 | 351 | 383
CC1(C)CCC(c2ccc(Cl)cc2)=C(CN2CCN(c3ccc(C(=O)NS(=O)(=O)c4ccc(N[C@H](CCN5CCOCC5)CSc5ccccc5)c(S(=O)(=O)C(F)(F)F)c4)cc3)CC2)C1 + Nc1ccn([C@@H]2O[C@H](CO)[C@@H](O)C2(F)F)c(=O)n1 [gemcitabine] (first compound 0.4 µM, partner dose 0.0004 µM) | 82.6 | 113 | 168 | 330 | 169 | 715 |  | 1660 | 1030 | 747
Cn1cnc2c(F)c(Nc3ccc(Br)cc3Cl)c(C(=O)NOCCO)cc21 [selumetinib] + CN(C)S(=O)(=O)c1ccc2c(c1)/C(=C/c1cc3c([nH]1)CCCC3)C(=O)N2 [SU6656] (first compound 0.015 µM, partner dose 0.4 µM) | 197 | 46.6 | 70 | 201 | 142 | 137 | 79.8 | 86.1 | 91.3 | 123
Cn1sc(=O)n(Cc2ccccc2)c1=O + CC(C)(C)c1cnc(CSc2cnc(NC(=O)C3CCNCC3)s2)o1 [SNS-032] (first compound 0.4 µM, partner dose 0.01 µM) | 106 | 160 | 49.5 | 116 | 107 | 81.5 | 150 | 89.5 | 123 | 133
COc1ccc(C2=N[C@@H](c3ccc(Cl)cc3)[C@@H](c3ccc(Cl)cc3)N2C(=O)N2CCNC(=O)C2)c(OC(C)C)c1 [Nutlin-3] + CS(=O)(=O)CCNCc1ccc(-c2ccc3ncnc(Nc4ccc(OCc5cccc(F)c5)c(Cl)c4)c3c2)o1 [lapatinib] (first compound 0.1 µM, partner dose 0.8 µM) | 44.6 | 47.4 | 94.2 | 64.2 | 67.8 | 134 |  | 107 | 20.4 | 103
COc1ccc(C2=N[C@@H](c3ccc(Cl)cc3)[C@@H](c3ccc(Cl)cc3)N2C(=O)N2CCNC(=O)C2)c(OC(C)C)c1 [Nutlin-3] + C=C(c1ccc(C(=O)O)cc1)c1cc2c(cc1C)C(C)(C)CCC2(C)C [Bexarotene] (first compound 0.1 µM, partner dose 2 µM) | 124 | 169 | 72.5 | 57.8 | 39.7 | 114 |  | 118 | 120 | 129
C[C@]1(O)C[C@@H](c2nc(-c3ccc4ccc(-c5ccccc5)nc4c3)c3c(N)nccn32)C1 + CO[C@@H]1[C@H](N(C)C(=O)c2ccccc2)C[C@H]2O[C@]1(C)n1c3ccccc3c3c4c(c5c6ccccc6n2c5c31)C(=O)NC4 [Midostaurin] (first compound 0.4 µM, partner dose 0.08 µM) | 96.5 | 195 | 143 | 524 | 112 | 99 | 210 | 113 | 167 | 94.7
COc1ccc(C2=N[C@@H](c3ccc(Cl)cc3)[C@@H](c3ccc(Cl)cc3)N2C(=O)N2CCNC(=O)C2)c(OC(C)C)c1 [Nutlin-3] + O=C(O)c1ccc(-c2c[nH]c3ncc(-c4ccccc4)cc23)cc1C1CCCC1 [GSK650394] (first compound 0.1 µM, partner dose 0.16 µM) | 243 | 93.8 | 60.4 | 159 | 80.8 | 468 | 152 | 120 | 267 | 138
CS(=O)(=O)c1ccc(C(=O)Nc2ccc(Cl)c(-c3ccccn3)c2)c(Cl)c1 [vismodegib] + NCC(=O)Nc1ccc(-n2nc(C(F)(F)F)cc2-c2ccc3c(ccc4ccccc43)c2)cc1 [OSU03012] (first compound 1 µM, partner dose 1 µM) | 165 | 43.2 | 103 | 4700 | 37.5 | 75.6 | 221 | 187 | 33.1 | 118
NC1(c2ccc(-c3nc4ccn5c(=O)[nH]nc5c4cc3-c3ccccc3)cc2)CCC1 + CCCS(=O)(=O)Nc1ccc(F)c(C(=O)c2c[nH]c3ncc(Cl)cc23)c1F [PLX4720] (first compound 0.4 µM, partner dose 0.08 µM) | 78.7 | 52.8 | 188 | 327 | 179 | 142 |  | 84.8 | 81.6 | 92.7
CCN(CC)CCNC(=O)c1c(C)[nH]c(/C=C2\C(=O)Nc3ccc(F)cc32)c1C [sunitinib] + COc1cc2c(Oc3ccc4[nH]c(C)cc4c3F)ncnc2cc1OCCCN1CCCC1 [cediranib] (first compound 0.4 µM, partner dose 0.4 µM) | 51.3 | 110 | 220 | 123 | 42.3 | 55.2 | 276 | 77 | 65.6 | 97.8

A section from the list above, for reference:
SMILES | cleaved PARP positive nuclei fraction [1] [%] | cleaved PARP positive nuclei fraction [2] [%] | cleaved PARP positive nuclei fraction [3] [%] | cleaved PARP positive nuclei fraction [4] [%] | cleaved PARP positive nuclei fraction [5] [%] | cleaved PARP positive nuclei fraction [6] [%] | cleaved PARP positive nuclei fraction [7] [%] | cleaved PARP positive nuclei fraction [8] [%] | cleaved PARP positive nuclei fraction [9] [%] | cleaved PARP positive nuclei fraction [10] [%]
CC1(C)CCC(c2ccc(Cl)cc2)=C(CN2CCN(c3ccc(C(=O)NS(=O)(=O)c4ccc(N[C@H](CCN5CCOCC5)CSc5ccccc5)c(S(=O)(=O)C(F)(F)F)c4)cc3)CC2)C1 + Nc1ccn([C@@H]2O[C@H](CO)[C@@H](O)C2(F)F)c(=O)n1 [gemcitabine] (first compound 0.4 µM, partner dose 0.0004 µM) | 82.6 | 113 | 168 | 330 | 169 | 715 |  | 1660 | 1030 | 747
Cn1cnc2c(F)c(Nc3ccc(Br)cc3Cl)c(C(=O)NOCCO)cc21 [selumetinib] + CN(C)S(=O)(=O)c1ccc2c(c1)/C(=C/c1cc3c([nH]1)CCCC3)C(=O)N2 [SU6656] (first compound 0.015 µM, partner dose 0.4 µM) | 197 | 46.6 | 70 | 201 | 142 | 137 | 79.8 | 86.1 | 91.3 | 123
Cn1sc(=O)n(Cc2ccccc2)c1=O + CC(C)(C)c1cnc(CSc2cnc(NC(=O)C3CCNCC3)s2)o1 [SNS-032] (first compound 0.4 µM, partner dose 0.01 µM) | 106 | 160 | 49.5 | 116 | 107 | 81.5 | 150 | 89.5 | 123 | 133
COc1ccc(C2=N[C@@H](c3ccc(Cl)cc3)[C@@H](c3ccc(Cl)cc3)N2C(=O)N2CCNC(=O)C2)c(OC(C)C)c1 [Nutlin-3] + CS(=O)(=O)CCNCc1ccc(-c2ccc3ncnc(Nc4ccc(OCc5cccc(F)c5)c(Cl)c4)c3c2)o1 [lapatinib] (first compound 0.1 µM, partner dose 0.8 µM) | 44.6 | 47.4 | 94.2 | 64.2 | 67.8 | 134 |  | 107 | 20.4 | 103
COc1ccc(C2=N[C@@H](c3ccc(Cl)cc3)[C@@H](c3ccc(Cl)cc3)N2C(=O)N2CCNC(=O)C2)c(OC(C)C)c1 [Nutlin-3] + C=C(c1ccc(C(=O)O)cc1)c1cc2c(cc1C)C(C)(C)CCC2(C)C [Bexarotene] (first compound 0.1 µM, partner dose 2 µM) | 124 | 169 | 72.5 | 57.8 | 39.7 | 114 |  | 118 | 120 | 129
